# Measured values published in PMC10608102.
# By UniProt entry, the sequences of proteins in these tests, tags left out. Where a name states a change or a piece, a line headed by the entry shows the natural chain unless it says otherwise.
# UniProt R0M8E4: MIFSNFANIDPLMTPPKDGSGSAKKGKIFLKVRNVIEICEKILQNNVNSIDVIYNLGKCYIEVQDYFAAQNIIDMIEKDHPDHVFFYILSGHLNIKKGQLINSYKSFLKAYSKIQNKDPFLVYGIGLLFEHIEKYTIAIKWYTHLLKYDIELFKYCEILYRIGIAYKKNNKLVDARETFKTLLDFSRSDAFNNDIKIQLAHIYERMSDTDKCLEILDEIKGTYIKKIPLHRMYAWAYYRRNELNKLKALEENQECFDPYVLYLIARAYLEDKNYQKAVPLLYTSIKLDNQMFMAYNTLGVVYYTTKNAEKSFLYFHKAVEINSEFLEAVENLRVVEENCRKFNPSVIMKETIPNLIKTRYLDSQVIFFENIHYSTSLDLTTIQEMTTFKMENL
# UniProt R0MKS5: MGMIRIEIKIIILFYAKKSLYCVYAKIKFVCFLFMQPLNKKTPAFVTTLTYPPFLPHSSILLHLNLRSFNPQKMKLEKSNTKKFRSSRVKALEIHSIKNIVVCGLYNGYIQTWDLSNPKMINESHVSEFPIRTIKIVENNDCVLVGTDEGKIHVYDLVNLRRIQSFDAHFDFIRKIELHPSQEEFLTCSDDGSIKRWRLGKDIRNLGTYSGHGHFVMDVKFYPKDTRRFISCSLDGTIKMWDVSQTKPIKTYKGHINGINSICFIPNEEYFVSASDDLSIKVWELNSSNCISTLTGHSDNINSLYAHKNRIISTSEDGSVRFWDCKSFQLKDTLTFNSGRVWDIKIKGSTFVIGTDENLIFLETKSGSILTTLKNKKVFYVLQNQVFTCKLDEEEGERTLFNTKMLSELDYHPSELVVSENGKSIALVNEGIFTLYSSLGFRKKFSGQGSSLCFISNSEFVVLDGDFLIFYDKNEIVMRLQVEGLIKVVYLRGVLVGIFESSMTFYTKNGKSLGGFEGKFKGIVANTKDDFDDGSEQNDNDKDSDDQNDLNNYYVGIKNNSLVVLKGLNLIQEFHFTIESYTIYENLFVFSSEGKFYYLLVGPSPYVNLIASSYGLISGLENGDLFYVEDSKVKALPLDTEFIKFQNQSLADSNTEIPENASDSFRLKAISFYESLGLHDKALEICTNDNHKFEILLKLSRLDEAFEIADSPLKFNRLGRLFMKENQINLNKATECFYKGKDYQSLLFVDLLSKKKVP
# UniProt R0KU88: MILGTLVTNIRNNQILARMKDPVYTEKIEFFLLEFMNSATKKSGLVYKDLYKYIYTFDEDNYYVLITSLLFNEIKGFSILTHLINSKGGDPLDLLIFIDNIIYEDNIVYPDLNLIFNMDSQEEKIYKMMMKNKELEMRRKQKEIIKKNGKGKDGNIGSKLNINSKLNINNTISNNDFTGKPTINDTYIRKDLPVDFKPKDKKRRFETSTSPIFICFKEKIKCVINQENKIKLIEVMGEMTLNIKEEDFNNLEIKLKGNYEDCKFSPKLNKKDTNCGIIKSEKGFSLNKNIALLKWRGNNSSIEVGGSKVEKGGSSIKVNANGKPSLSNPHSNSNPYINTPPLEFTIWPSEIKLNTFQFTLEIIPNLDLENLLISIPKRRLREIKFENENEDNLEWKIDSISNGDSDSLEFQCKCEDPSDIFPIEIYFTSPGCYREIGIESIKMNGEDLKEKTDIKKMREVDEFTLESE
# UniProt R0KPG4: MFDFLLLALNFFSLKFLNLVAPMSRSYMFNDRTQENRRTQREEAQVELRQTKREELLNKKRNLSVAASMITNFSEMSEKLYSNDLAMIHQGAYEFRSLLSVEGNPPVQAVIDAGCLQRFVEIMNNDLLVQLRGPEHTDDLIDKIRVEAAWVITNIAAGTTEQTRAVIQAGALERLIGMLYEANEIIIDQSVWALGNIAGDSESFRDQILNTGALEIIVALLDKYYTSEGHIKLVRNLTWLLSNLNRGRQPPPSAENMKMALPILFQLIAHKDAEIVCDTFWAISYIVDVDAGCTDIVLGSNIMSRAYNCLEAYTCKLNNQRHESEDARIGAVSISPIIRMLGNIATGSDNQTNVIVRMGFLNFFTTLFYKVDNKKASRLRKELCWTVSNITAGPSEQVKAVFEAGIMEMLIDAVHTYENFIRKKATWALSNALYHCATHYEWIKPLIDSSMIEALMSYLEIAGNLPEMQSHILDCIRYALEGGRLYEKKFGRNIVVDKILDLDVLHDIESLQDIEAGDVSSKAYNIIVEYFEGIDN
# UniProt R0KN94: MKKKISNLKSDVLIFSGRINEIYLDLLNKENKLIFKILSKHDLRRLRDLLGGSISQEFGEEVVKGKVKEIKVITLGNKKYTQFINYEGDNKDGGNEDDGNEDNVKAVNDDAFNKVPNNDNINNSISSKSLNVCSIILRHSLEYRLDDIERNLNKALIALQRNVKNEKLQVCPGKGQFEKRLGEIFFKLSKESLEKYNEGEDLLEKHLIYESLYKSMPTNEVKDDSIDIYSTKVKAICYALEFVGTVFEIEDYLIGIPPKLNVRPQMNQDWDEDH
# UniProt R0M0F9: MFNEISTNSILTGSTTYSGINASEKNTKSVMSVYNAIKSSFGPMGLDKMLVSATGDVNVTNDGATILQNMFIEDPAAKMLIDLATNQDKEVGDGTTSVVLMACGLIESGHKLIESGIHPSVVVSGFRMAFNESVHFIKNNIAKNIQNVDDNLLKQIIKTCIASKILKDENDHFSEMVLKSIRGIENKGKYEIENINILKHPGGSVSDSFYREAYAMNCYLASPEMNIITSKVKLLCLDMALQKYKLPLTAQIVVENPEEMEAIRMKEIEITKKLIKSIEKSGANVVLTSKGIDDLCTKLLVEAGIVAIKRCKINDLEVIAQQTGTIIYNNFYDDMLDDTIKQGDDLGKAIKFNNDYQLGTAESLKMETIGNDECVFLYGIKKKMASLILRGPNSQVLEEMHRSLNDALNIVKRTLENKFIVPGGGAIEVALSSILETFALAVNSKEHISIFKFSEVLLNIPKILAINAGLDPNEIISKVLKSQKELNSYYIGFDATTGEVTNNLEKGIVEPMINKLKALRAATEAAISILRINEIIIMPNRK
# UniProt R0M363: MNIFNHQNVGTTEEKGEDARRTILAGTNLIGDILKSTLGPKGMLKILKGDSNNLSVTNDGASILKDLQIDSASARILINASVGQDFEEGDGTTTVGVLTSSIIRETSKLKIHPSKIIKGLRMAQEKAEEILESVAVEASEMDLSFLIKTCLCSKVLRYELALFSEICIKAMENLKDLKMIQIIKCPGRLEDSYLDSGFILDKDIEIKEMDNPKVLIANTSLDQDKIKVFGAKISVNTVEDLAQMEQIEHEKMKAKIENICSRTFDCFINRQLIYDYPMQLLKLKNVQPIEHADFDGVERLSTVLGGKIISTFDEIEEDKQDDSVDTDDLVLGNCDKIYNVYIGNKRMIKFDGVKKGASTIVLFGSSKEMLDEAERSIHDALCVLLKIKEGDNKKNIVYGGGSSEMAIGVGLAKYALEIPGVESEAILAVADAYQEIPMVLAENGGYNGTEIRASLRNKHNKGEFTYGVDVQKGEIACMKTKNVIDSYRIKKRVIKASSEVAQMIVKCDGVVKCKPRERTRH
# UniProt R0MRC6: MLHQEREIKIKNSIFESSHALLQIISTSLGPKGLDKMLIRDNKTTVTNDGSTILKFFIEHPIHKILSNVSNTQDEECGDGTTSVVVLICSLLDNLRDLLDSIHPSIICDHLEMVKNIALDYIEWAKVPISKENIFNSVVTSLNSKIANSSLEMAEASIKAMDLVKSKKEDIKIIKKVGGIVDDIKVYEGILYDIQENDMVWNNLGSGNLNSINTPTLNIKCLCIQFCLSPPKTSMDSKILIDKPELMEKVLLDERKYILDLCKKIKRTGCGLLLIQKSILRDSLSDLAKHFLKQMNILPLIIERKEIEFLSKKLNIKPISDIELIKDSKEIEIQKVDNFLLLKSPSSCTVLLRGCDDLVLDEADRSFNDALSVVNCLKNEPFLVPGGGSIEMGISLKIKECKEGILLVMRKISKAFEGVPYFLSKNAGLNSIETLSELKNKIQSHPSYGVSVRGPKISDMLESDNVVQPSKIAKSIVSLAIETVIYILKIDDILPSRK
# UniProt R0M6E7: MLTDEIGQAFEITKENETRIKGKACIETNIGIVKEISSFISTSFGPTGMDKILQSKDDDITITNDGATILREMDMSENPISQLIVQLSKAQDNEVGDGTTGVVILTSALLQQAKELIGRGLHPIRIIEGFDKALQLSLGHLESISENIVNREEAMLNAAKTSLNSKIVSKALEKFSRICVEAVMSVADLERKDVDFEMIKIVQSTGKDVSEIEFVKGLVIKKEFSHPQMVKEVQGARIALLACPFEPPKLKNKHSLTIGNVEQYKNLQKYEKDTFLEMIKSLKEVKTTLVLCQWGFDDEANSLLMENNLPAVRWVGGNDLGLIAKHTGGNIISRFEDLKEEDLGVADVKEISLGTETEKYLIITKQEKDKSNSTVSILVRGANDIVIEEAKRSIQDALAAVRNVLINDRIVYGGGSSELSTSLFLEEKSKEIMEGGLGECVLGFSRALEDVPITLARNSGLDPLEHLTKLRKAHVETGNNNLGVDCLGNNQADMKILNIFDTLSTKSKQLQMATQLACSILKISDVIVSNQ
# UniProt R0KMZ4: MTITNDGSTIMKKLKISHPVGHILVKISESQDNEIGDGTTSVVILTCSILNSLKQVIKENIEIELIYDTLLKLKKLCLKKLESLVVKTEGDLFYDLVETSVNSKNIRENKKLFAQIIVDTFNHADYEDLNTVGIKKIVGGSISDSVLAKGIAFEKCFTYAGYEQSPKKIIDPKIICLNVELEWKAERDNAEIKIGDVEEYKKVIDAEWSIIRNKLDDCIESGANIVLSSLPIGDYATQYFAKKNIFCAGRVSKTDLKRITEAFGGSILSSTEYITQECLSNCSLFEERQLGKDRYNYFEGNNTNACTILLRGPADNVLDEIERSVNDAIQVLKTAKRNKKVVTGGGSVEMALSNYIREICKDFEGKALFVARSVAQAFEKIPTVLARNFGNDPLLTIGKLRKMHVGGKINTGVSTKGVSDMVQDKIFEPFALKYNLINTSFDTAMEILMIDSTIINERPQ
# Results are given in words; binding and its absence hold for the method and conditions named. Binding seen in cells or lysates may run through a third protein. These calls come from enrichment with a bait or labelling near it, and not all partners need be listed.
# Molecular target: general transcriptional corepressor Ssn6 of Nosema bombycis (Nbssn6) (Nosema bombycis (endogenous in N. bombycis spores)) (UniProt R0M8E4)
# Assay: affinity purification with mass spectrometry; Co-IP: 2 ug Nbssn6 polyclonal antibody in 500 uL protein solution of N. bombycis (NP-40 lysate) with protease inhibitor cocktail, 4 °C 16 h; Protein A magnetic beads 4 °C 6~8 h; washed with PBS 3 times; specific SDS-PAGE (Coomassie) bands cut for mass spectrometry; rabbit IgG as negative control
row,binding,Substance
1,binds,Coatomer subunit beta (from UniProt R0MKS5)
2,binds,Coatomer subunit delta-3 (from UniProt R0KU88)
3,binds,Importin subunit alpha-2 (from UniProt R0KPG4)
4,binds,T complex protein 1 theta subunit (from UniProt R0KN94)
5,binds,T-complex protein 1 subunit alpha (from UniProt R0M0F9)
6,binds,T-complex protein 1 subunit beta (from UniProt R0M363)
7,binds,T-complex protein 1 subunit delta (from UniProt R0MRC6)
8,binds,T-complex protein 1 subunit epsilon (from UniProt R0M6E7)
9,binds,T-complex protein 1 subunit eta (from UniProt R0KMZ4)
